Earlier results as cited in publication PMC9298182, “De novo design of type II topoisomerase inhibitors as potential antimicrobial agents targeting a novel binding region” (RSC Medicinal Chemistry, 2022).

Details: development terminated; cited from earlier work

Cl.NCC(NC(=O)c1cccc(-c2cccs2)c1)c1ccc(O)cc1 (stereo not shown) [Compound 1]
in vivo toxicity: observed in vivo toxicity issues
